Measured values taken from paper PMC8055684.
No constants are given. Whether binding was seen depends on the method and setting. For some assays here: Binding seen in cells or lysates may run through a third protein. Some entries that bind do so weakly or less than the wild type.

Sequences of proteins named here, by UniProt entry; tags and fusion partners are left off.
UniProt Q9H0A8: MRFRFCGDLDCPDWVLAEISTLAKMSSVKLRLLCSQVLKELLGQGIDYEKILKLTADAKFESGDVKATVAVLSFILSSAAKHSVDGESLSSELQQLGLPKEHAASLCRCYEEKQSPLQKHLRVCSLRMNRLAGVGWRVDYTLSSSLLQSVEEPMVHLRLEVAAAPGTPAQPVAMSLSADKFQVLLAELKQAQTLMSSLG
UniProt Q5VTR2: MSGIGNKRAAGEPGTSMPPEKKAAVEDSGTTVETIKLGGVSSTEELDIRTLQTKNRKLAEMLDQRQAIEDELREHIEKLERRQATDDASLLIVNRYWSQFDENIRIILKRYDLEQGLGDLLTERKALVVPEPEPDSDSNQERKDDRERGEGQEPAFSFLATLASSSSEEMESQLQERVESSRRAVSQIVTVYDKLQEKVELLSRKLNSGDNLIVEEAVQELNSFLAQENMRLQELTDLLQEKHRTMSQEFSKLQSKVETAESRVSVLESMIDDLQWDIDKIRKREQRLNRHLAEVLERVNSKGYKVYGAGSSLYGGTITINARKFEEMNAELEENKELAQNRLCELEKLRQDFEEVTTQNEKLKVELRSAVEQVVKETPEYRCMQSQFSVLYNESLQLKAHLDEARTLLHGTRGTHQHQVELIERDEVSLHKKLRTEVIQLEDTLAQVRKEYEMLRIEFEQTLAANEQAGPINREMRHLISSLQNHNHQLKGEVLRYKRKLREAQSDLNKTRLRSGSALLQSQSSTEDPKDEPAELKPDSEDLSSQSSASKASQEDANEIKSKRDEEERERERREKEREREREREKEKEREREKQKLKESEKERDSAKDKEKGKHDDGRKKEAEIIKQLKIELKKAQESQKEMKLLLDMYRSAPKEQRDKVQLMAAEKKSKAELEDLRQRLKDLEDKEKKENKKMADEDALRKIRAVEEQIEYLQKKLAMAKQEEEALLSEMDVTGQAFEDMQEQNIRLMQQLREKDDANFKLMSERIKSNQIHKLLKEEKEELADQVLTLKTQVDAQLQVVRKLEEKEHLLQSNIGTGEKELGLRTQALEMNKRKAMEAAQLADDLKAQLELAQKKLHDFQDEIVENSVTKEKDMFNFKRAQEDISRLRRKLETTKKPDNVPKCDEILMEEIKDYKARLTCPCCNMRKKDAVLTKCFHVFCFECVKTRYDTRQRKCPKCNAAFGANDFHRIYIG
UniProt Q9BQ15: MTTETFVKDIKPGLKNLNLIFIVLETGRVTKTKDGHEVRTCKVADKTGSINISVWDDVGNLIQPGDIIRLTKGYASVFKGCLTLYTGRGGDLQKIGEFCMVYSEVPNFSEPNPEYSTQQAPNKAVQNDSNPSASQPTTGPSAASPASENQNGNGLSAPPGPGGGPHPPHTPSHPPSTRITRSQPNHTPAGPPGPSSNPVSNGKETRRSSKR

Tests used:
[1] = biological target: COMMD4, purified (construct not stated; in vitro binding assay with RNF20 and RNF40) (UniProt Q9H0A8); assay: in vitro binding assay; purified proteins; COMMD4 with RNF20 or RNF40; details not shown (Supplementary Fig. 4d-f); both purified
COMMD4-FLAG = COMMD4-FLAG (UniProt Q9H0A8); assay: co-IP; COMMD4 and hSSB1 in cells; bait and constructs not shown (Supplementary Fig. 4a)

binding [1]	binding (COMMD4-FLAG)	Substance
binds	–	recombinant active human RNF20 (from UniProt Q5VTR2 1-975) (enzyme)
–	binds	hSSB1 in cells (co-immunoprecipitation) (from UniProt Q9BQ15 1-211)
